PubChem BioAssay AID1259424 – University of Nebraska Medical Center – 2018
Here is one part, drawn at random, of about 14,000 reagents tested. 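Higher correlation or smaller distance means closer resemblance to KSR1 loss; control wells, including KSR1 knockdowns, recur on many plates.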 Further read-outs or replicates are left out here. No sequences are given here. The record does not give: the time to read-out.

- Purpose: 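Seek colon cancer survival genes behaving like KSR1, using a six-gene signature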 (primary screen)
- Cells: human HCT116 colon cancer cells
- Reagents: siRNA pool against human genes, 50 nM
- Measured: 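Six signature mRNAs by branched-DNA multiplex assay, scaled to two housekeeping genes and non-targeting median, log2; matched to mean KSR1 knockdown profile by Pearson correlation and euclidean distance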
- Reading the numbers: mean correlation with KSR1 profile: higher = expression change more like KSR1 knockdown; mean distance from KSR1 profile: higher = expression change less like KSR1 knockdown

The first 6 records, to show the layout:
Target gene	PubChem SID	mean correlation with KSR1 profile	mean distance from KSR1 profile
LAMP5	SID363998183	-0.347	1.48
CHD1	SID363992555	0.303	1.38
EFCAB6	SID364002557	-0.685	1.84
ICAM5	SID363994380	0.554	1.85
RPRD1B	SID364002099	-0.391	1.58
USB1	SID364002902	-0.203	4.98

Main list, repeating the preview:
Target gene	PubChem SID	mean correlation with KSR1 profile	mean distance from KSR1 profile
LAMP5	SID363998183	-0.347	1.48
CHD1	SID363992555	0.303	1.38
EFCAB6	SID364002557	-0.685	1.84
ICAM5	SID363994380	0.554	1.85
RPRD1B	SID364002099	-0.391	1.58
USB1	SID364002902	-0.203	4.98
C14orf132	SID364001566	-0.904	2.64
HACD3	SID364000082	0.11	2.68
RPS6KB2	SID363995007	-0.0931	2.79
MSR1	SID363993623	0.000578	1.48
BLOC1S1	SID363992745	-0.069	2.69
NUP37	SID364002716	0.443	1.73
HCRT	SID363992782	0.863	1.36
MINPP1	SID363995846	-0.207	1.23
MORC4	SID364002951	0.0943	1.64
H3-3A	SID363993313	0.37	1.39
USP8	SID363996082	-0.812	1.41
DPY19L1	SID364005476	-0.0926	1.72
CSAG1	SID364004776	-0.564	3.69
ZP3	SID363997857	0.323	1.23
GSTCD	SID364003027	0.663	1.39
CD19	SID363992989	-0.603	1.59
PIGU	SID364004484	0.264	1.1
TRIM13	SID363996676	0.337	1.27
CACHD1	SID364001899	0.221	0.934
DKFZp566H0824 (retired record)	SID364000344	-0.327	2.31
ZBTB44	SID363998615	-0.44	2.48
GZMH	SID364004377	0.183	2.02
RPS23	SID363992323	-0.248	1.37
MTERF1	SID363997716	-0.141	4.54
WWOX	SID364000071	0.165	1.07
ADGRB3	SID363992926	0.248	1.75
TMEM121	SID364003358	0.356	1.9
SCG2	SID363994568	0.652	2.16
DNAJB5	SID363998188	0.221	1.3
NIM1K	SID364004770	0.881	0.611
MYBPH	SID363995936	-0.266	2.11
NPAS4	SID364004925	-0.751	1.32
RPS18	SID364002483	-0.439	2.26
TAF1D	SID364002763	-0.203	2.2
GUK1	SID363992145	0.424	1.34
RAPGEFL1	SID364000045	0.539	0.964
DUX1	SID363998091	-0.497	2.19
NEMP1	SID364005152	-0.751	2.23
POMT1	SID363997871	0.343	3.06
NR2E1	SID363994388	-0.378	1.73
SPIRE2	SID364005197	0.792	1.48
GJA4	SID363993267	-0.427	3.18
KLK12	SID364001429	-0.376	1.34
CCNI	SID363997601	0.326	2.22
